Laboratory results: patent US7091351B2, “Vanadium compounds for treating cancer” (Parker Hughes Institute, priority 1998, dated 2006)
Some entries share one result that the patent states for a list of compounds. For some of these results: At least one compound was matched to its structure with a doubt left.

Legend:
clonogenic NALM-6 cells = assay: In vitro clonogenic growth of NALM-6 leukemia cells; assay type: cell-based, human
U373 glioblastoma cells = assay: MTT cytotoxicity assay of vanadocenes, U373 cells; assay type: cell-based, human; details: comparison of MTT IC50 values
Experimental: Human testicular cancer cell lines, Tera-2 (embryonal carcinoma) and Ntera-2 (pluripotent embryonal carcinoma) were obtained from the American Type Culture Collection (ATCC) (Rockeville, Md.) and propagated in T-25, T-75, or T-150 cm^2 tissue culture flasks (Corning Corp., Corning, N.Y.) in McCoy's 5A medium and Dulbecco's modified Eagle's medium respectively. Both media were supplemented with 10% fetal calf serum (FCS), 4 mM glutamine, 100 U/ml penicillin G, and […] streptomycin sulfate. All tissue culture reagents were obtained from Life Technologies Inc. (GIBCO-BRL), Gaithersburg, Md. Cell lines were cultivated for a minimum of two passages after thawing prior to experimentation. Other cell lines that were used in this study were the human B-lineage acute lymphoblastic leukemia (ALL) cell line NALM-6. Uckun, F. M., Evans, W. E., Forsyth, C. J., Waddick, K. G., Tuel-Ahlgren, L., Chelstrom, L. M., Burkhardt, A., Bolen, J., Myers, D. E. Biotherapy of B-cell precursor leukemia by targeting genistein to CD19-associated tyrosine kinase. […]

bis(4,7-dimethyl-1,10-phenanthroline)sulfatooxovanadium(IV) [Compound 29]
concentration that completely abrogated in vitro colony formation (clonogenic NALM-6 cells): < 1 µM

VCp2(dtc) [VD(dtc)]
more active against U373 cells than against TERA-2 or NTERA-2 cells (U373 glioblastoma cells): > 1 log

[I-].[I-].[V+2].c1cc[cH-]c1.c1cc[cH-]c1 [VDI, VCp2I2]
more active against U373 cells than against TERA-2 or NTERA-2 cells (U373 glioblastoma cells): > 1 log

(diaqua)(4,7-dimethyl-1,10-phenanthroline)oxovanadium(IV) sulfate [Compound 28]
concentration that completely abrogated in vitro colony formation (clonogenic NALM-6 cells): < 1 µM
